Experimental findings from the supplement of paper PMC9135407 are described below.

Structures can show the parent of a compound that is named as a salt. ± gives the standard deviation of the averaged measurements. The list shows a part of the results. Part of the spread comes from offsets between plates or batches.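 Culture-activated primary human stellate myofibroblasts, where regained lipid droplets signal inactivation. Value: share of Hoechst-counted cells above a per-plate Bodipy cutoff, in duplicate wells, with DMSO negative and nortriptyline positive controls on each plate. Hits: a control-normalized score above the plate's top-tenth-percentile nortriptyline wells, or one of a plate's three best wells. Final well concentrations are not given.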

In this experiment the test system is primary human hepatic stellate cells (donor 1). Nature of the experiment: percent Bodipy-positive cells; higher = more lipid droplet accumulation. The settings on record: 48 h.
Setting [1] is: library stock concentration: 10 mM.
[2] abbreviates: library stock concentration: 3.33 mM.
The mark [3] stands for this setting: library stock concentration: 80 uM.
Where [4] appears, read: library stock concentration: 400 uM.
Where [5] appears, read: library stock concentration: 2 mM.
Setting [6] is: library stock concentration: 1 mM.

Take `CC(O)(C(=O)Nc1ccc(S(=O)(=O)c2ccccc2)cc1)C(F)(F)F` (configuration not stated): the “percent Bodipy-positive cells” value reads like this: under setting [1], 9.72 ± 0.63%; (library stock concentration: 13.4 mM) 38.9 ± 19%.

On to `CC1=C(C(=O)OCCN(Cc2ccccc2)c2ccccc2)C(c2cccc([N+](=O)[O-])c2)C(P2(=O)OCC(C)(C)CO2)=C(C)N1` (configuration not stated) [Efonidipine hydrochloride monoethanolate], for which, under setting [1], the “percent Bodipy-positive cells” value turned out to be 8.18 ± 2.9%.

Regarding `C1CCC2(CC1)CCNCC2` [4,4-Pentamethylenepiperidine hydrochloride], under setting [1], the “percent Bodipy-positive cells” value was found to be 12.7 ± 4.1%.

Turning to `CCCNS(=O)(=O)Nc1ncnc(OCCOc2ncc(Br)cn2)c1-c1ccc(Br)cc1` [Macitentan], the “percent Bodipy-positive cells” value is 34.1 ± 7.6% under setting [2] and 42.7 ± 19% under setting [1].

As for `CC(CCc1ccc(O)cc1)NCCc1ccc(O)c(O)c1` (configuration not stated) [Dobutamine hydrochloride], the “percent Bodipy-positive cells” value stood at 25.9 ± 0.93%. Where the note is “library stock concentration: 5.9 mM”, the “percent Bodipy-positive cells” value amounted to 11.5 ± 0.24%.

Take `CC(CCc1ccc(O)cc1)NCCc1ccc(O)c(O)c1` (configuration not stated) [Dobutamine HCl]: the “percent Bodipy-positive cells” value (library stock concentration: 6.6 mM) is 6.28 ± 2%.

Regarding `CCCCCCCCCCCCCCCCn1cc[n+](Cc2ccccc2)c1C.[I-]`, the “percent Bodipy-positive cells” value under setting [2] was determined as 87.44 ± 0.72%.

For `C=CC(=O)N1CCc2ccc(-n3c(=O)ccc4cnc5ccc(-c6cnn(C)c6)cc5c43)cc21`, the “percent Bodipy-positive cells” value under setting [1] amounted to 100%.

As to `O=C(NC1CC1)c1cccc(-c2ccc3c(NC(=O)C4CC4)n[nH]c3c2)c1`, the “percent Bodipy-positive cells” value is, setting by setting: under setting [3], 8.48 ± 3.4%; under setting [4], 12.3 ± 0.61%; under setting [5], 11.2 ± 3.8%; under setting [1], 14.9 ± 3.3%.

`CC[C@]12CCCN3CCc4c(n(c5ccccc45)[C@@](O)(C(=O)OC)C1)[C@@H]32` [Vincamine]: the “percent Bodipy-positive cells” value was determined as 37.3 ± 6.7%. The “percent Bodipy-positive cells” value under setting [1] stood at 32.1 ± 11%.

On to `CC1=NN(c2ccc(C(=O)O)cc2)C(=O)C1=Cc1ccc(-c2cc(C)c(C)cc2[N+](=O)[O-])o1`, for which the “percent Bodipy-positive cells” value is, setting by setting: under setting [2], 25.1 ± 2.5%; under setting [1], 24.2 ± 7.5%.

Consider `CC(C)N(CCC(=O)c1ccc2ccccc2c1)Cc1ccccc1`, for which the “percent Bodipy-positive cells” value by setting is: under setting [2], 91.1 ± 0.92%; under setting [1], 97.9 ± 3%.

Turning to `CC(C)(C)C#Cc1cc(N(C(=O)[C@H]2CC[C@H](C)CC2)[C@H]2CC[C@H](O)CC2)c(C(=O)O)s1` [VX-222 (VCH-222, Lomibuvir)], the “percent Bodipy-positive cells” value amounted to 12.4 ± 7% under setting [2] and 35 ± 1.6% under setting [1].

`CCOC(=O)c1ccc(C#Cc2ccc3c(c2)C(C)(C)CCS3)nc1` [Tazarotene]: the “percent Bodipy-positive cells” value is, setting by setting: under setting [2], 15.5 ± 5.3%; under setting [1], 21.9 ± 0.46%.

For `C#CCCCCCCCCCNC(=O)Oc1cccc(-c2cccc(C(N)=O)c2)c1`, under setting [6], the “percent Bodipy-positive cells” value was found to be 8.28 ± 3.1%.

Consider `CCC(C)(C)c1ccc(CC(C)CN2C[C@@H](C)O[C@@H](C)C2)cc1` (some centres not stated) [Amorolfine], for which, where the note is “library stock concentration: 6.3 mM”, the “percent Bodipy-positive cells” value was found to be 23.3 ± 15%.

`CCC(C)(C)c1ccc(CC(C)CN2C[C@@H](C)O[C@@H](C)C2)cc1` (some centres not stated) [Amorolfine HCl]: the “percent Bodipy-positive cells” value came to 16.6 ± 0.68% under setting [2] and 50.5 ± 12% under setting [1].

With `CCC(C)(C)c1ccc(CC(C)CN2C[C@@H](C)O[C@@H](C)C2)cc1` (some centres not stated), the “percent Bodipy-positive cells” value under setting [1] turned out to be 45 ± 3.8%.

On to `CCCCC/C=C\C/C=C\CC/C=C\CCCC(=O)O` [Pinolenic Acid], for which the “percent Bodipy-positive cells” value under setting [6] turned out to be 6.78 ± 1.7%.

Consider `COc1ccc(-c2cc3c(C)nc(N)nc3n([C@H]3CC[C@H](OCCO)CC3)c2=O)cn1`, for which the “percent Bodipy-positive cells” value turned out to be 7.85 ± 2.4% under setting [2] and 44.4 ± 4% under setting [1].

In the case of `CCCCCCCCNC(=O)Cc1c(C)n(C(=O)c2ccc(Cl)cc2)c2ccc(OC)cc12` [Indomethacin N-octyl amide], the “percent Bodipy-positive cells” value under setting [6] turned out to be 26.4 ± 26%.

Consider `CC(C)(C)c1cc(NC(=O)Nc2ccc(-c3cn4c(n3)sc3cc(OCCN5CCOCC5)ccc34)cc2)no1` [Quizartinib  (AC220) (10 mM)], for which the “percent Bodipy-positive cells” value under setting [1] turned out to be 97.084 ± 0.083%.

As to `CC(C)(C)c1cc(NC(=O)Nc2ccc(-c3cn4c(n3)sc3cc(OCCN5CCOCC5)ccc34)cc2)no1` [Quizartinib  (AC220) (2 mM)], the “percent Bodipy-positive cells” value under setting [5] came out at 66.5 ± 5.7%.

In the case of `Cn1c(=O)c(F)c(Nc2ccc(I)cc2F)c2c(=O)n(C[C@@H](O)CO)cnc21`, the “percent Bodipy-positive cells” value runs as follows: under setting [2], 20.5 ± 7.5%; under setting [1], 34.6 ± 4.7%.

In the case of `CCOc1ccc(-c2nc3ccc(-c4nc5ccc(N6CCN(C)CC6)cc5[nH]4)cc3[nH]2)cc1`, under “library stock concentration: 8.9 mM”, the “percent Bodipy-positive cells” value amounted to 94.6 ± 7.6%.

Turning to `CCc1c(C(=O)NCCc2ccc(N3CCCCC3)cc2)[nH]c2ccc(Cl)cc12`, the “percent Bodipy-positive cells” value is 8.99 ± 0.1% under setting [2] and 83.2 ± 7.2% under setting [1].

Take `CCCCC[C@H](O)/C=C/[C@@H]1[C@H](CCCCCCC(=O)O)[C@H](O)C[C@H]1O` [8-iso Prostaglandin F1.beta.]: under setting [6], the “percent Bodipy-positive cells” value amounted to 16.3 ± 0.37%.

As to `CC/C=C/C/C=C/C/C=C/C/C=C/CCCCC(=O)OC` [Stearidonic Acid methyl ester], the “percent Bodipy-positive cells” value under setting [6] was found to be 16.8 ± 4.8%.

For `O=C(Nc1cccc(Cl)c1)Nc1ncc(CCNc2ncnc3ccsc23)s1` [SNS-314 Mesylate], the “percent Bodipy-positive cells” value reads like this: under setting [2], 20.4 ± 1.6%; under setting [1], 36.05 ± 0.2%.

Regarding `O=C(Nc1cccc(Cl)c1)Nc1ncc(CCNc2ncnc3ccsc23)s1`, the “percent Bodipy-positive cells” value runs as follows: under setting [4], 11.6 ± 1.9%; under setting [5], 20 ± 0.95%; under setting [1], 29.4 ± 3.3%.

Take `CCN1CCN(Cc2ccc(Nc3ncc4c(n3)N(C)c3ccccc3C(=O)N4C)cc2C(F)(F)F)CC1`: the “percent Bodipy-positive cells” value under setting [3] worked out at 19.1 ± 3.6%, the “percent Bodipy-positive cells” value under setting [4] is 26.5 ± 2.1%, the “percent Bodipy-positive cells” value under setting [5] stood at 37.5 ± 4.9% and the “percent Bodipy-positive cells” value under setting [1] came out at 98.3 ± 0.99%.

As for `Nc1ncnc2c1c(-c1cccc(OCc3ccccc3)c1)cn2C1CC(CN2CCCC2)C1` (configuration not stated), the “percent Bodipy-positive cells” value under setting [1] worked out at 96.8 ± 4.5%.

`CCCCC/C=C\C/C=C\C/C=C\CCCC/C=C\CCC(=O)O` [cis-4,10,13,16-Docosatetraenoic Acid]: under setting [6], the “percent Bodipy-positive cells” value stood at 22.4 ± 20%.

For the compound `CNC(=O)CN1CCC(Oc2cc3c(Nc4cccc(Cl)c4F)ncnc3cc2OC)CC1` [AZD8931 (Sapitinib)], the “percent Bodipy-positive cells” value runs as follows: under setting [2], 40.2 ± 11%; under setting [1], 69.2 ± 3.5%.

With `CCCCC[C@H](O)/C=C/[C@H]1C=CC(=O)[C@H]1C/C=C\CCCC(=O)O` [8-iso Prostaglandin A2], the “percent Bodipy-positive cells” value under setting [6] turned out to be 15.7 ± 3.7%.

On to `CCN1CCCC1CNC(=O)c1cc(S(=O)(=O)CC)c(N)cc1OC` (configuration not stated) [Amisulpride], for which, under setting [2], the “percent Bodipy-positive cells” value is 25.3 ± 6.1%.

Turning to `Nc1nc(N)nc(-c2cc(Cl)ccc2Cl)n1` [Irsogladine], the “percent Bodipy-positive cells” value under setting [2] is 11.2 ± 2.5% and the “percent Bodipy-positive cells” value under setting [1] came out at 10.6 ± 2.2%.

Regarding `Nc1nc(N)nc(-c2cc(Cl)ccc2Cl)n1` [Irsogladine maleate], the “percent Bodipy-positive cells” value was determined as 11 ± 0.26% (library stock concentration: 7.8 mM) and 10.8 ± 2.6% under setting [1].
